Measurements reported in PubChem BioAssay AID743458 (Peter MacCallum Cancer Centre, 2014).
Screen: 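Find knock-downs that make vorinostat-resistant colon cancer cells sensitive again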 (follow-up of hits). System: human HCT116-VR colon cancer cells made resistant to vorinostat. Reagents: single siRNA or pool against human genes, 25 nM per single siRNA. Duration: about 72 h after transfection, including 24 h of drug. Conditions: vorinostat, 2.5 µM final, for 24 h. Read-out: 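Live-cell fluorescent viability and luminescent caspase 3/7 activity after vorinostat treatment, background subtracted, mean of duplicate plates, as fold change over mock-transfected wells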. Direction: viability relative to mock: higher = more living cells than mock; caspase activity relative to mock: higher = more apoptosis than mock. Hit rule: 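Active means a reduced-viability or caspase-activation class, anything else inactive; classes could only be given to wells that looked healthy when left untreated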.
Here is an unselected part of about 1,800 reagents tested. 732 of all reagents (41%) count as active. 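Calls are per siRNA reagent; a gene was deemed confirmed only if most of its four siRNAs scored.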 Entries without a mark were called inactive. No sequences are given here.

gene	PubChem SID	viability relative to mock	caspase activity relative to mock	viability hit class	caspase hit class
MGA (MAX dimerization protein MGA)	SID134291013	0.22 (active)	2.36	reduced viability	no change
MGA (MAX dimerization protein MGA)	SID134291015	0.4 (active)	0.95	reduced viability	no change
MGA (MAX dimerization protein MGA)	SID135616726	0.21 (active)	3.17	reduced viability	caspase activation
MGA (MAX dimerization protein MGA)	SID135616727	1	1.21	no change	no change
SAMD8 (sterile alpha motif domain containing 8)	SID134269393	0.85 (active)	3.58	no change	caspase activation
SAMD8 (sterile alpha motif domain containing 8)	SID134269394	0.22 (active)	2.79	reduced viability	caspase activation
SAMD8 (sterile alpha motif domain containing 8)	SID134269395	0.94	2.07	no change	no change
SAMD8 (sterile alpha motif domain containing 8)	SID134269396	0.79	1.99	no change	no change
VPS52 (VPS52 subunit of GARP complex)	SID134254221	0.92	1.29	no change	no change
VPS52 (VPS52 subunit of GARP complex)	SID134254222	0.93	1.77	no change	no change
VPS52 (VPS52 subunit of GARP complex)	SID134254223	0.77 (active)	3	no change	caspase activation
VPS52 (VPS52 subunit of GARP complex)	SID134254224	0.38 (active)	2.5	reduced viability	no change
ZBTB2 (zinc finger and BTB domain containing 2)	SID134262953	1.05	1.21	no change	no change
ZBTB2 (zinc finger and BTB domain containing 2)	SID134262954	0.94	1.86	no change	no change
ZBTB2 (zinc finger and BTB domain containing 2)	SID134262955	0.84	0.99	no change	no change
ZBTB2 (zinc finger and BTB domain containing 2)	SID134262956	0.06	1.74	no change	no change
DNAI4 (dynein axonemal intermediate chain 4)	SID134282034	0.5 (active)	3.08	reduced viability	caspase activation
DNAI4 (dynein axonemal intermediate chain 4)	SID134282035	0.84	1.09	no change	no change
DNAI4 (dynein axonemal intermediate chain 4)	SID134282036	0.72	1.32	no change	no change
DNAI4 (dynein axonemal intermediate chain 4)	SID135615818	0.8	0.82	no change	no change
RNF19B (ring finger protein 19B)	SID134248965	0.94	1.56	no change	no change
RNF19B (ring finger protein 19B)	SID134248966	1.01	1.14	no change	no change
RNF19B (ring finger protein 19B)	SID134248967	1.07	1.81	no change	no change
RNF19B (ring finger protein 19B)	SID134248968	1.07	1.36	no change	no change
KIF12 (kinesin family member 12)	SID134242265	0.26	2.17	no change	no change
KIF12 (kinesin family member 12)	SID134242266	0.7 (active)	3.6	no change	caspase activation
KIF12 (kinesin family member 12)	SID134242267	0.84	1.86	no change	no change
KIF12 (kinesin family member 12)	SID134242268	0.94	1.38	no change	no change
TANGO2 (transport and golgi organization 2 homolog)	SID134271297	0.96	1.72	no change	no change
TANGO2 (transport and golgi organization 2 homolog)	SID134271298	0.7 (active)	4.06	no change	caspase activation
TANGO2 (transport and golgi organization 2 homolog)	SID134271299	0.31	2.69	no change	no change
TANGO2 (transport and golgi organization 2 homolog)	SID134271300	0.6 (active)	3.54	no change	caspase activation
ANO1 (anoctamin 1)	SID134296917	0.1	1.62	no change	no change
ANO1 (anoctamin 1)	SID134296918	0.88	1	no change	no change
ANO1 (anoctamin 1)	SID134296919	0.96	1.18	no change	no change
ANO1 (anoctamin 1)	SID134296920	0.52 (active)	3.44	reduced viability	caspase activation
CFHR1 (complement factor H related 1)	SID135612489	0.22 (active)	3.17	reduced viability	caspase activation
CFHR1 (complement factor H related 1)	SID135612490	0.88	1.42	no change	no change
CFHR1 (complement factor H related 1)	SID135612491	0.9	1.22	no change	no change
CFHR1 (complement factor H related 1)	SID135612492	0.97	1.04	no change	no change
NUP85 (nucleoporin 85)	SID134264237	1.05	1.66	no change	no change
NUP85 (nucleoporin 85)	SID134264238	1.08	1.16	no change	no change
NUP85 (nucleoporin 85)	SID134264240	0.88 (active)	2.89	no change	caspase activation
NUP85 (nucleoporin 85)	SID135614422	0.96	1.67	no change	no change
PGAM1 (phosphoglycerate mutase 1)	SID134244649	0.9	1.36	no change	no change
PGAM1 (phosphoglycerate mutase 1)	SID134244650	0.54 (active)	3.67	reduced viability	caspase activation
PGAM1 (phosphoglycerate mutase 1)	SID134244651	0.96	1.12	no change	no change
PGAM1 (phosphoglycerate mutase 1)	SID134244652	1.08	1.09	no change	no change
KLHDC3 (kelch domain containing 3)	SID134258609	0.68 (active)	7.24	no change	caspase activation
KLHDC3 (kelch domain containing 3)	SID134258610	0.93	1.03	no change	no change
KLHDC3 (kelch domain containing 3)	SID134258611	0.85	2.78	no change	no change
KLHDC3 (kelch domain containing 3)	SID134258612	0.76	1.68	no change	no change
MMP13 (matrix metallopeptidase 13)	SID134235246	0.75 (active)	3.38	no change	caspase activation
MMP13 (matrix metallopeptidase 13)	SID134235247	1	1.32	no change	no change
MMP13 (matrix metallopeptidase 13)	SID134235248	0.96	1.38	no change	no change
MMP13 (matrix metallopeptidase 13)	SID152151469	0.98	0.99	no change	no change
RGS18 (regulator of G protein signaling 18)	SID134243161	0.94 (active)	3.97	no change	caspase activation
RGS18 (regulator of G protein signaling 18)	SID134243162	0.64 (active)	5.42	no change	caspase activation
RGS18 (regulator of G protein signaling 18)	SID134243164	0.85	1.52	no change	no change
RGS18 (regulator of G protein signaling 18)	SID135612664	0.68 (active)	3.14	no change	caspase activation
RBBP9 (RB binding protein 9, serine hydrolase)	SID134275918	0.18 (active)	4.73	reduced viability	caspase activation
RBBP9 (RB binding protein 9, serine hydrolase)	SID134275919	0.94	1.56	no change	no change
RBBP9 (RB binding protein 9, serine hydrolase)	SID134275920	0.71	2.53	no change	no change
RBBP9 (RB binding protein 9, serine hydrolase)	SID135615306	0.72	1.32	no change	no change
AIFM2 (AIF family member 2, ferroptosis suppressor)	SID134231637	0.11	2.06	no change	no change
AIFM2 (AIF family member 2, ferroptosis suppressor)	SID134231638	0.58	2.1	no change	no change
AIFM2 (AIF family member 2, ferroptosis suppressor)	SID134231639	0.82	1.77	no change	no change
AIFM2 (AIF family member 2, ferroptosis suppressor)	SID134231640	0.71	2.05	no change	no change
SPINT2 (serine peptidase inhibitor, Kunitz type 2)	SID134249005	0.9 (active)	3.29	no change	caspase activation
SPINT2 (serine peptidase inhibitor, Kunitz type 2)	SID134249006	0.98	1.43	no change	no change
SPINT2 (serine peptidase inhibitor, Kunitz type 2)	SID134249008	0.59	1.34	no change	no change
SPINT2 (serine peptidase inhibitor, Kunitz type 2)	SID135613146	0.43 (active)	3.21	reduced viability	caspase activation
ZC3H11D (zinc finger CCCH-type containing 11D)	SID134273045	1.03	1.19	no change	no change
ZC3H11D (zinc finger CCCH-type containing 11D)	SID134273046	0.95	1.34	no change	no change
ZC3H11D (zinc finger CCCH-type containing 11D)	SID134273047	0.96	1.5	no change	no change
ZC3H11D (zinc finger CCCH-type containing 11D)	SID134273048	1.02	0.94	no change	no change

Targets above whose gene name starts with T or t (4):
gene	PubChem SID	viability relative to mock	caspase activity relative to mock	viability hit class	caspase hit class
TANGO2 (transport and golgi organization 2 homolog)	SID134271297	0.96	1.72	no change	no change
TANGO2 (transport and golgi organization 2 homolog)	SID134271298	0.7 (active)	4.06	no change	caspase activation
TANGO2 (transport and golgi organization 2 homolog)	SID134271299	0.31	2.69	no change	no change
TANGO2 (transport and golgi organization 2 homolog)	SID134271300	0.6 (active)	3.54	no change	caspase activation
